This note sets out measurements from publication PMC5324553.

Protein sequences, listed by entry. Tags and fused reporters are not part of them. Lines headed by an entry give the natural chain unless they say otherwise; changes in a name come on top.
UniProt P10749: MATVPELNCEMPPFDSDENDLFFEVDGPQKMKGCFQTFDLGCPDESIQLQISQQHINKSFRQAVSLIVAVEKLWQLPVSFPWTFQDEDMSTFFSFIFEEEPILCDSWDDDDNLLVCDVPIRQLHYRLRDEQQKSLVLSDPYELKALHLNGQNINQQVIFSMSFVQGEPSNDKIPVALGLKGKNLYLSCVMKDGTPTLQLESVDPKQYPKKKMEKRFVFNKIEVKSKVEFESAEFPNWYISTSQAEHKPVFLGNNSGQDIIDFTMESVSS

This test concerns the target T1, Flag-USP50 (ubiquitin-specific peptidase 50) (UniProt Q70EL3).
T1 sequence: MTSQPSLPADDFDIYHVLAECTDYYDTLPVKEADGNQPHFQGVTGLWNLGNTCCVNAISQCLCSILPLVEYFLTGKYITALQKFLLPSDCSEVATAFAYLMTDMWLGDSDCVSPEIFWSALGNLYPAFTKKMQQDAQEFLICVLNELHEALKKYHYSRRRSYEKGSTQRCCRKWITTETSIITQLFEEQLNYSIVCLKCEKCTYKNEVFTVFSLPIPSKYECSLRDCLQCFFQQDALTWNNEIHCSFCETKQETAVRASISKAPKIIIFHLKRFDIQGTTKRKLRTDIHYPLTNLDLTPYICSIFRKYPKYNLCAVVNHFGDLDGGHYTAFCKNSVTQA
In words: co-IP; HEK293 cells co-transfected with an HA-tagged inflammasome component and Flag-USP50; lysates immunoprecipitated with Flag antibody and immunoblotted.

These are yes or no findings as the source states them, for the method shown. Binding seen in cells or lysates may run through a third protein. Tags and fused reporters may be left off the sequences shown.

For HA-pro-IL-1β (from UniProt P10749), the binding result is given as “no binding”.
